These are yes or no findings as the source states them, for the method shown. Binding seen in cells or lysates may run through a third protein. Binding calls can cover weak binding; strength is not graded here.
Target: T1, stimulator of interferon genes (STING), endogenous in mouse primary cardiomyocytes (mouse (endogenous in mouse primary cardiomyocytes)) (UniProt Q3TBT3)
T1 sequence: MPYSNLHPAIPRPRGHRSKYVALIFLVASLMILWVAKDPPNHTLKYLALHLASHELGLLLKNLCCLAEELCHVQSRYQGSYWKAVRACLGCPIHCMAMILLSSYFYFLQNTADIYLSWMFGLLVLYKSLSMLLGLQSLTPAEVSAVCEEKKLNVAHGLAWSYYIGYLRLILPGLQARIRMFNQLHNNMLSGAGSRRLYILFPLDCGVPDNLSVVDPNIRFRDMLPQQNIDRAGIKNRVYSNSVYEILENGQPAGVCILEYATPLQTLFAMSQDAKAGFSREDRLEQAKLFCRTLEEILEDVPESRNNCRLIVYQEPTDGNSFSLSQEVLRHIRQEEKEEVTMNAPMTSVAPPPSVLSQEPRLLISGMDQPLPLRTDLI
Assay: co-IP; endogenous proteins of mouse primary cardiomyocytes post-A/R, with or without short cGAMP stimulation; IP with STING or GPX4 antibody, immunoblot for the other

Substance: glutathione peroxidase 4 (GPX4), endogenous in mouse primary cardiomyocytes
- binding: binds
